Results as given in the supplement of paper PMC7024190.
The list shows a part of the results. This data set is noisy: repeats of one test often differ as much as different tests do.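 The cells were human embryonic kidney cells carrying a Renilla luciferase gene, driven by the HSV-TK promoter, on a plasmid put in briefly by transfection. This is the first-round screen of about ten thousand compounds, looking for ones that raise reporter output.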

tested on: HEK 293FT; experiment: log relative Renilla luciferase luminescence (reporter expression vs reference, reference not stated) (log (base not stated)); higher = higher recombinant reporter expression; conditions: 10 µM; time after transfection 48 h
Protocol: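 HEK 293FT cells transiently transfected with pRL-TK (Renilla luciferase) were treated with compounds at 10 uM and luminescence was read about 42 h later. Values are log relative Renilla luminescence (log base and reference not stated). Single-pass screen; 2080 natural products library.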

| Compound | log |
| --- | --- |
| COc1cc(-c2oc3cc(OC(C)=O)c(OC)c(OC(C)=O)c3c(=O)c2OC)ccc1OC(C)=O [Jaceidin triacetate] | -0.184 |
| CCCCCCCCCCCCCCCCCCCCCCCc1cc(O)cc(O)c1 [5-Tricosyl-1,3-benzenediol] | 0.116 |
| COc1ccoc1 [3-Methoxyfuran] | -0.0445 |
| C=C[C@]1(C)CC[C@]2(C)[C@@H](C1)C(=O)C[C@H]1[C@]3(C)CCC[C@@]12OC3=O [Rosenonolactone] | -0.184 |
| C=C1CC[C@H]2C(C)(C)CCC[C@]2(C)[C@H]1/C=C/c1ccoc1 [Coronarin E] | 0.046 |
| COc1cc(/C=C/c2ccccc2)cc(OC(C)=O)c1 [(E)-3-Acetoxy-5-methoxystilbene] | -0.279 |
| CC(=O)O[C@H]1CC[C@@]2(C)C(CC[C@]3(C)[C@@H]2CCC2=C4CC(C)(C)CC[C@]4(C)CC[C@]23C)C1(C)C (stereo partly specified) [delta-Amyrin acetate] | -0.14 |
| CC(=O)O[C@@H]1C(=O)[C@]2(C)[C@H](CC[C@@]3(C)[C@H](c4ccoc4)OC(=O)[C@H]4O[C@]432)[C@@]23COC(=O)C[C@@H]2OC(C)(C)[C@@H]13 [Glaucin B] | -0.123 |
| O=c1c2ccccc2nc2n1CCC2 [Deoxyvasicinone] | -0.282 |
| C=C1[C@@H](OC(=O)/C=C/c2ccccc2)C[C@H](OC(C)=O)[C@@]2(C)[C@@H](OC(C)=O)[C@H](OC(C)=O)C3=C(C)C(=O)C[C@@H]([C@@H](OC(C)=O)[C@H]12)C3(C)C [Taxinine B] | -0.0654 |
| O=C(OC[C@H]1O[C@@H](O[C@@H]2OC=C[C@H]3[C@H](OC(=O)c4ccc(O)cc4)[C@@H]4O[C@]4(CO)[C@@H]23)[C@H](O)[C@@H](O)[C@@H]1O)c1ccc(O)cc1 [6'-O-p-Hydroxybenzoylcatalposide] | -0.273 |
